{
  "sequences": {"note": "Chains of the proteins cited; added tags and fusions are not shown. Lines headed by an entry give the natural chain unless they say otherwise; changes in a name come on top.", "UniProt P20292": "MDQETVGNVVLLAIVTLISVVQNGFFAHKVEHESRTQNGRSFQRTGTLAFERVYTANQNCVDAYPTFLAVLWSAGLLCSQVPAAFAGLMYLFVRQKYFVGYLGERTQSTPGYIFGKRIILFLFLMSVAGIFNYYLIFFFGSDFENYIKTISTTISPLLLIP"},
  "source": "patent US9745328B2",
  "about": "“Flap modulators” (JANSSEN PHARMACEUTICA NV, priority 2013, dated 2017)",
  "molecular_target": "human FLAP (Homo sapiens (Human), UniProt P20292)",
  "experiment": "FLAP binding assay (HTRF format)",
  "conditions": "Table 6 (additional runs), human FLAP wild type",
  "procedure": "The ability of the compounds of the present invention to treat a FLAP-mediated disease and/or disorder, or associated symptoms or complications thereof, was determined using the following procedures. Binding assay data represent the average value obtained from two different assay plates, with samples run in duplicate on each plate. Human whole blood assay data represent a single replicate on an assay plate using whole blood from at least one healthy donor.\nData are expressed as a HTRF ratio.",
  "note": "Where a name gives a salt, the structure may show the parent alone.",
  "data": [
    {"smiles": "CC(=O)NC1CCN(S(=O)(=O)Cc2ccccc2-c2ccc(-c3cnc(N)cn3)c(F)c2)CC1", "note": "[Example 233, N-[1-({[4′-(5-Aminopyrazin-2-yl)-3′-fluorobiphenyl-2-yl]methyl}sulfonyl)piperidin-4-yl]acetamide formate salt]", "values": [
      {"measurement": "Ki", "result": 0.637, "unit": "µM"}
    ]}
  ]
}
